Laboratory results from PubChem BioAssay AID2551 (National Center for Advancing Translational Sciences (NCATS), 2010).
Among all 310,000 compounds or so, about 17,000 (5.5%) were called active. The inconclusive results got no clear call from the source; some entries with a clear call stand among them for comparison. Calls come from the whole dose curve; as a rule, active = well fitted inhibition curve with a large enough effect; inconclusive = small, poorly fitted or top-dose-only effect, or effect the other way; inactive = no such curve, though single readings can be large or run the other way. Potencies beside an inconclusive call are fits to weak or partial responses and may not hold up.

Amino acid sequences for entries named in this document (tags omitted). A change or cut given only in a name is not applied to a line headed by its entry.
UniProt P51450: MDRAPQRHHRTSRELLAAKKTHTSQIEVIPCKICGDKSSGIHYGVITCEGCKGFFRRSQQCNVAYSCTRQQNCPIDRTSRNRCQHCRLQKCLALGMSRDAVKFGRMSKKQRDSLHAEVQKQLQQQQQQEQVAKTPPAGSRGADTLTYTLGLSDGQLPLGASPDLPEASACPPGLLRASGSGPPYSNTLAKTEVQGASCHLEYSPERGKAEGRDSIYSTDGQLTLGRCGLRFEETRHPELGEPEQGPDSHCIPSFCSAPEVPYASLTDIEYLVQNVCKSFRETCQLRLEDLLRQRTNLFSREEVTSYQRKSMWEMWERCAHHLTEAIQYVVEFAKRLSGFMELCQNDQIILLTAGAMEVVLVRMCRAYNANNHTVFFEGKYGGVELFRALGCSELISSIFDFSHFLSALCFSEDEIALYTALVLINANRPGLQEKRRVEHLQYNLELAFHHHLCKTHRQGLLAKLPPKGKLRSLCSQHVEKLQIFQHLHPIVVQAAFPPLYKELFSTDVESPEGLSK

target: Nuclear receptor ROR-gamma (Mus musculus) (UniProt P51450); assay: qHTS for inhibitors of ROR gamma transcriptional activity; conditions: Drosophila S2 Gal4-RORgamma UAS-luciferase reporter, 20 h; series mostly up to 53.6 µM; note: nearly all actives have a fitted effect of over 60% in size
In short: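 A Gal4/UAS one-hybrid system in insect cells: metallothionein-promoter Gal4–ROR gamma fusion plus Photinus luciferase reporter. Copper sulfate 700 uM final, 20 hr ambient incubation, luminescent detection after 10 min with reagent.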
Potency is the fitted concentration of half-maximal effect.

| SMILES | Potency |
| --- | --- |
| Clc1ccccc1C1=CC(c2ccco2)n2ncnc2N1 (stereo not drawn) | inconclusive: 11.2 µM [inhibitor, partial curve, poor fit] |
| Cc1ccc(O)c(-c2cc(C(=O)Nc3ccc(S(=O)(=O)Nc4nc(C)cc(C)n4)cc3)[nH]n2)c1 | inconclusive: 22.4 µM [activator, single point] |
| O=C(NCCNC(=O)c1ccccn1)c1ccc(Cl)cc1 | inactive |
| O=C(CN1CCc2ccccc2C1)NC1CCCC1 | inconclusive: 20 µM [activator, partial curve] |
| Cc1ccc(NC(=O)c2nnn(-c3cc(C)cc(C)c3)c2N)cc1 | inconclusive: 15.8 µM [activator, partial curve] |
| COc1ccc(CNC(=O)CCCCCNc2nc(=S)[nH]c3ccccc23)cc1 | inconclusive: 17.8 µM [inhibitor, single point] |
| Cc1ccc(-c2c[n+](Cc3cccc(Cl)c3)c3n2CCC3)cc1 | inconclusive: 3.16 µM [activator, partial curve, poor fit] |
| O=C1NC(=Nc2ccccc2)S/C1=C\c1ccccc1 | inconclusive: 11.2 µM [inhibitor, partial curve] |
| CCOCC(=O)Nc1nnc(COC)s1 | inconclusive: 3.55 µM [activator, single point] |
| Cc1cc(C)c(/C=C(\C#N)C(N)=S)c(C)c1 | inconclusive: 5.62 µM [inhibitor, single point] |
| Cc1ccc(NCC(=O)N/N=C/c2ccc(-c3cccc(C(F)(F)F)c3)o2)cc1 | inconclusive: 35.5 µM [inhibitor, single point] |
| CCOC(=O)Cc1csc(NC(=O)c2csc3c2CCCC3)n1 | active: 12.6 µM |
| COc1cccc(N2CCN(C(=O)c3ccc(CSc4nc5ccncc5[nH]4)cc3)CC2)c1 | inactive |
| CC(C)c1ccc(NC(=O)N2CCCC2C(=O)Nc2ccc(-n3cnnn3)cc2)cc1 (stereo not drawn) | inactive |
| O=C(C#Cc1ccccc1)NCc1ccccc1F | inconclusive: 11.2 µM [activator, single point] |
| O=C(c1ccco1)N(Cc1ccc(Cl)cc1)Cc1ccco1 | inconclusive: 20 µM [activator, single point] |
| CCOC(=O)N/N=C/c1ccc(N(CC)CC)cc1O | inconclusive: 35.5 µM [inhibitor, single point] |
| Cc1ccc(C)c(NC(=O)c2cc([N+](=O)[O-])cc([N+](=O)[O-])c2)c1 | inactive |
| COc1c2ccoc2c(OC[C@@H](O)C(C)(C)OC)c2oc(=O)ccc12 | inconclusive: 15.8 µM [inhibitor, single point] |
| COc1ccc(Cn2nnnc2C(c2ccncc2)N2CCOCC2)cc1 (stereo not drawn) | inconclusive: 35.5 µM [inhibitor, single point] |
| Cc1cc(C)n(-c2ccc(C(=O)OCC(=O)NCc3ccc(F)cc3)cc2)n1 | inactive |
| COCCCNC(=O)c1cc(-c2cccnc2)nc2ccccc12 | inactive |
| CC(C)c1ccc(NC(=O)c2ccc(NS(C)(=O)=O)cc2)cc1 | inconclusive: 2.51 µM [activator, full curve, poor fit] |
| CCOC(=O)CNC(=O)CSc1nc(NCc2ccccc2)nc(N(C)C)n1 | inconclusive: 35.5 µM [activator, single point] |
| Cc1cc(C)cc(-n2nnc(C(=O)NCc3ccc4c(c3)OCO4)c2N)c1 | inconclusive: 31.6 µM [activator, single point] |

| SMILES | Potency |
| --- | --- |
| Cn1c(-c2ccc(F)cc2)cnc1SCC(=O)N1CCCCC1 | active: 10 µM |
| COC(=O)c1ccc(NC(=O)c2ccccc2-c2ccccc2C(=O)O)cc1 | inactive |
| O=C(Nc1cnn(Cc2ccc(F)cc2)c1)c1cc2nc(-c3ccco3)cc(C(F)(F)F)n2n1 | inconclusive: 2.82 µM [inhibitor, single point] |
| O=C(CCN1C(=O)/C(=C/c2ccccc2Cl)SC1=S)N1CCCC1 | active: 8.91 µM |
| Clc1ccccc1Cn1nnc(-c2cccs2)n1 | inconclusive: 3.55 µM [activator, partial curve, poor fit] |
| Oc1ccc(N2CCN(Cc3c(-c4ccccc4)nc4ccccn34)CC2)cc1 | inconclusive: 12.6 µM [inhibitor, partial curve] |
| Cc1ccc(NC(=S)N(CCN(C)C)Cc2cccs2)c(C)c1 | inconclusive: 10 µM [inhibitor, partial curve] |
| Cc1ccc2c(CC(=O)NC3=NCCS3)coc2c1 | inconclusive: 25.1 µM [inhibitor, single point] |
| c1ccc(Cn2c(CNc3nc4ccccc4n3CCN3CCCCC3)nc3ccccc32)cc1 | inconclusive: 22.4 µM [inhibitor, partial curve, poor fit] |
| CC(C)(C)c1ccc(Oc2ncccc2NC(=O)c2cccs2)cc1 | inconclusive: 20 µM [activator, single point] |
| CN(C)CCCN(C(=O)/C=C/c1cccs1)c1nc2c(F)cccc2s1 | inconclusive: 12.6 µM [inhibitor, single point] |
| CCOC(=O)C1=C(CSc2nc(CC)c(C)cc2C#N)OC(N)=C(C#N)C1c1ccc(OC)cc1 (stereo not drawn) | inactive |
| Cc1ccc(N2C(=O)N(CC(=O)C(C)(C)C)c3ccccc3S2(=O)=O)cc1 | inactive |
| COc1cc(OC)c(OC)cc1CNC(=O)c1ccc(COc2ccccc2)cc1 | inconclusive: 10 µM [activator, partial curve] |
| CN1CCN(/N=C/c2nc(-c3ccccc3)n3ccccc23)CC1 | inconclusive: 12.6 µM [inhibitor, partial curve] |
| CCc1sc(C(=O)Nc2ccc(F)cc2C)cc1C | inconclusive: 0.316 µM [inhibitor, full curve, poor fit] |
| CN(C)c1ccc(NC(=O)c2ccc(Cn3cc([N+](=O)[O-])cn3)cc2)cc1 | inconclusive: 15.8 µM [activator, partial curve] |
| CC(C)(C)c1ccc(C(=O)O)c(C(=O)c2ccccc2)c1 | inactive |
| Cc1ccc(C2=N/C(=C\c3cccs3)C(=O)N2Nc2ccccc2)cc1 | inactive |
| CC(C)Oc1ccc(C(=O)NCCCNC(=O)c2ccccn2)cc1 | inactive |
| Cc1ccc(C)c(N=Cc2cc3c(cc2[N+](=O)[O-])OCO3)c1 | inconclusive: 22.4 µM [inhibitor, single point] |
| CCc1ccc(S(=O)(=O)NCc2csc(-c3cccnc3)n2)s1 | inconclusive: 4.47 µM [activator, single point] |
| O=C(NC(=S)Nc1cccc([N+](=O)[O-])c1)c1ccccc1 | inconclusive: 2.51 µM [inhibitor, full curve] |
| CC1=NN(C(=O)c2ccoc2C)C(O)(C(F)(F)F)C1 (stereo not drawn) | active: 3.55 µM |
| CCn1c(=O)cc(OCC(=O)N2CCN(c3cccc(C(F)(F)F)c3)CC2)c2ccccc21 | inactive |

| SMILES | Potency |
| --- | --- |
| O=C(CC1(O)C(=O)N(CN2CCOCC2)c2ccccc21)c1ccccc1 (stereo not drawn) | inconclusive: 22.4 µM [inhibitor, single point] |
| COc1ccc(/C=C/C(=O)c2ccc(C)s2)cc1 | inactive |
| CCCSCCCNC(=O)c1cc2c(s1)CS(=O)(=O)C2 | inconclusive: 35.5 µM [activator, single point] |
| CC(=O)c1cccc(NC(=O)N2CCCc3ccccc32)c1 | inconclusive: 31.6 µM [activator, single point] |
| O=C(OCC(=O)N1CCCC1)c1ccccc1O | inactive |
| Cc1ccc(-c2nc(C)c(C(=O)O)s2)cc1 | active: 8.91 µM |
| CCCCC(=O)NC(=S)Nc1cccc(NC(=O)c2ccco2)c1 | inconclusive: 22.4 µM [inhibitor, single point] |
| Cc1nc2ccccc2c2oc(C(=O)NCCCN3CCCC(C)C3)cc12 (stereo not drawn) | inactive |
| O=C1c2ccccc2C(=O)C1c1ccccn1 | inconclusive: 22.4 µM [inhibitor, single point] |
| Cc1ccc(S(=O)(=O)N(C)/N=C/C=C/c2ccccc2)cc1 | inconclusive: 35.5 µM [activator, single point] |
| CC(=O)N(Cc1cccnc1)Cc1cc2ccc(C)cc2[nH]c1=O | inconclusive: 0.1 µM [inhibitor, single point] |
| O=C(COc1cc2oc(=O)c3c(c2cc1Cl)CCC3)NCC(O)c1ccccc1 (stereo not drawn) | inactive |
| COc1cccc(/C=N/NC(=O)CC(C)O)c1OC/C=C/c1ccccc1 (stereo not drawn) | active: 11.2 µM |
| CCCCSc1nnc(-c2ccc(NC(=O)CC)cc2)n1C | inactive |
| COc1cccc(C(=O)NCc2nnc(SCC(=O)Nc3nccs3)n2-c2cccc(C)c2)c1 | inconclusive: 35.5 µM [activator, single point] |
| COc1ccccc1Oc1coc2cc(OC(=O)N3CCOCC3)ccc2c1=O | inconclusive: 2.82 µM [activator, full curve, poor fit] |
| CC(Oc1ccc(Cl)cc1Cl)C(=O)NNC(=O)C(=O)N1CCCC1 (stereo not drawn) | inactive |
| Cc1c(OC(C)C(=O)NCc2ccncc2)ccc2c3c(c(=O)oc12)CCC3 (stereo not drawn) | inconclusive: 8.91 µM [activator, partial curve] |
| Cc1n[nH]c(=S)n1/N=C/c1ccc(OCc2ccc(Cl)cc2)cc1 | active: 5.62 µM |
| O=C(CSCc1ccccc1)N/N=C/c1ccccc1OCc1ccccc1 | inactive |
| O=[N+]([O-])c1ccc2nc(-c3ccccn3)[nH]c2c1 | inconclusive: 1.58 µM [inhibitor, full curve] |
| Cc1cc2nc(CCN3CCOCC3)n(S(=O)(=O)c3ccc(C(C)(C)C)cc3)c2cc1C | inactive |
| Cc1cccc(NC(=S)NCc2ccc(F)cc2)c1 | inconclusive: 2.82 µM [inhibitor, full curve] |

Filtered by structure: those above with a thiophene ring, fused or not.

| SMILES | Potency |
| --- | --- |
| CCOC(=O)Cc1csc(NC(=O)c2csc3c2CCCC3)n1 | active: 12.6 µM |
| Clc1ccccc1Cn1nnc(-c2cccs2)n1 | inconclusive: 3.55 µM [activator, partial curve, poor fit] |
| Cc1ccc(NC(=S)N(CCN(C)C)Cc2cccs2)c(C)c1 | inconclusive: 10 µM [inhibitor, partial curve] |
| CC(C)(C)c1ccc(Oc2ncccc2NC(=O)c2cccs2)cc1 | inconclusive: 20 µM [activator, single point] |
| CN(C)CCCN(C(=O)/C=C/c1cccs1)c1nc2c(F)cccc2s1 | inconclusive: 12.6 µM [inhibitor, single point] |
| CCc1sc(C(=O)Nc2ccc(F)cc2C)cc1C | inconclusive: 0.316 µM [inhibitor, full curve, poor fit] |
| Cc1ccc(C2=N/C(=C\c3cccs3)C(=O)N2Nc2ccccc2)cc1 | inactive |
| CCc1ccc(S(=O)(=O)NCc2csc(-c3cccnc3)n2)s1 | inconclusive: 4.47 µM [activator, single point] |
| COc1ccc(/C=C/C(=O)c2ccc(C)s2)cc1 | inactive |
| CCCSCCCNC(=O)c1cc2c(s1)CS(=O)(=O)C2 | inconclusive: 35.5 µM [activator, single point] |

3 structures from above, sorted by molar mass, ascending:

| SMILES | Potency |
| --- | --- |
| CCn1c(=O)cc(OCC(=O)N2CCN(c3cccc(C(F)(F)F)c3)CC2)c2ccccc21 | inactive |
| COc1cccc(N2CCN(C(=O)c3ccc(CSc4nc5ccncc5[nH]4)cc3)CC2)c1 | inactive |
| CCOC(=O)C1=C(CSc2nc(CC)c(C)cc2C#N)OC(N)=C(C#N)C1c1ccc(OC)cc1 (stereo not drawn) | inactive |
